Laboratory results as given in paper PMC9792594.
Results are given in words; binding and its absence hold for the method and conditions named. In cells and extracts the contact can be indirect. Tags and fused reporters may be left off the sequences shown.

Biological target: T1, soluble form of His-tagged chondroitin 4-O-sulfotransferase-1 (UniProt Q9NPF2)
T1 sequence: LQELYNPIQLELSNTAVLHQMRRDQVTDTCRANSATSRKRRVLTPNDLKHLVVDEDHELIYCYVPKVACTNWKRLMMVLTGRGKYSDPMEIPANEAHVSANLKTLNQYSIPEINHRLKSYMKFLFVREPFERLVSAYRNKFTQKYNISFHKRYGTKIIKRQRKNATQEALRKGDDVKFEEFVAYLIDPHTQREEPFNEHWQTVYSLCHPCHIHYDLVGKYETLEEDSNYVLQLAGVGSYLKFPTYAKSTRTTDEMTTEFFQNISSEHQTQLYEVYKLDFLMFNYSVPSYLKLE
Assay: pull-down; culture medium of COS-1 cells co-expressing soluble His-tagged C4ST-1 and FLAG-tagged FAM20 proteins; Ni-NTA agarose or anti-FLAG tag antibody beads, 4 °C, 1 h; washed with TBS with 0.05% Tween 20; eluted with imidazole or FLAG peptide; immunoblot

soluble form of FLAG-tagged FAM20B (wild type) (enzyme)
binding: no binding
